According to the supplement of paper PMC3334620:
Whole data set: some 33,000 sequences, median “E-score (-0.5 to 0.5)” near -0.0034, cut for the highest 2% near 0.25. The list shows a part of the results.

Each sequence was assayed against T1, Yap3 (UniProt P38749) (assay: PBM E-score (8-mer binding enrichment) (E-score (-0.5 to 0.5)); higher = stronger / more preferred TF binding). Conditions: protein concentration: 100 nM; construct: GST-full length.
T1 sequence: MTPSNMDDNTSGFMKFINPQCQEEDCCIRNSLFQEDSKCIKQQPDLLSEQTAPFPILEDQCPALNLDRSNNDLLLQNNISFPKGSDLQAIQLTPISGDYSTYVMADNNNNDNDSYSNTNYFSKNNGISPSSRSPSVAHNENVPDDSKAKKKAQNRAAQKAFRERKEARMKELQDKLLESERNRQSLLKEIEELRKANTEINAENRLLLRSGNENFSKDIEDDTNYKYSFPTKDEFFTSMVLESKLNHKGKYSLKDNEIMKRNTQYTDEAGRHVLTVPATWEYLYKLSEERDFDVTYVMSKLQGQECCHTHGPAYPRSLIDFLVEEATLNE
Method: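 Universal 'all 10-mer' protein binding microarrays (Agilent AMADID 015681) probed with GST-tagged S. cerevisiae TFs (full-length or DBD) made by in vitro transcription/translation (PURExpress), about 100-200 nM. Bound TF was detected with fluorescent anti-GST. Each ungapped 8-mer (which stands for itself and its reverse complement) is scored by the PBM enrichment score (E-score), a modified Wilcoxon-Mann-Whitney statistic from -0.5 to +0.5, computed with the Universal PBM Analysis Suite. Scale: above 0.35 generally sequence-specific binding.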

Row | Sequence | PBM E-score
1 | GGCTAGCC | -0.413
2 | TAAGCGTA | -0.0249
3 | CGCGGTTC | 0.126
4 | AGGAGGCG | -0.107
5 | GAGGCACA | -0.0567
6 | GACGAACC | -0.115
7 | ATGGTAGC | -0.0694
8 | CCTCTTCC | -0.137
9 | ACTTGTAC | -0.0218
10 | AAGGTACC | 0.00876
11 | GTTACAAA | 0.225
12 | CCAGCGCA | -0.109
13 | AGGGGCTC | -0.256
14 | GCCCAGTA | -0.168
15 | TACCCTCA | -0.127
16 | ATCGCAAG | 0.0705
17 | CAGGGGCG | -0.0868
18 | CGCTTATC | 0.0171
19 | ACAACCTC | -0.0214
20 | ACCCGTAG | -0.319
21 | TTCATGAA | 0.123
22 | GCGTGTGA | -0.0295
23 | CTGTGTGA | 0.102
24 | CATTGCGG | -0.158
25 | AACGACCT | -0.00487

Individual results from the results shown.
For PBM E-score, GCCCAGTA has the entry -0.168
For PBM E-score, AAGGTACC has the entry 0.00876

Further results.

Row | Sequence | PBM E-score
26 | CCAATTTA | 0.258
27 | AGAATGGA | 0.0896
28 | CTTCCCCA | -0.178
29 | ATTGCCGA | -0.0174
30 | CTATATAG | 0.121
31 | AGCCTGCA | -0.0221
32 | CTAAAGTA | -0.0221
33 | GGTGTACA | -0.0122
34 | AACGCCTC | -0.387
35 | CCAGTAAC | 0.0196
36 | CTATGATA | 0.0744
37 | CAGCTCTA | -0.0405
38 | GCCCCGAA | -0.0165
39 | TACTGAGA | -0.0171
40 | ACTTCTTA | 0.0706
41 | AAAAATCG | -0.0533
42 | AAGCTCCT | -0.259
43 | AAACGGGA | 0.12
44 | AAGTTCCG | 0.0723
45 | GTGCAGGA | -0.0718
46 | GGAGTAAC | -0.103
47 | AGCGATCA | 0.0611
48 | CGCTACCG | 0.0191
49 | AGCATAGC | -0.0672
50 | GGTCTCTA | -0.0325

Row | Sequence | PBM E-score
51 | CAGCGCGA | -0.0276
52 | CATGGGGG | -0.265
53 | TGCCGGCA | 0.0991
54 | AAAGCAGG | -0.00967
55 | GGTTGGTA | 0.183
56 | GCATCCCA | -0.186
57 | AGAGGTTA | 0.0984
58 | AGGCTATC | -0.203
59 | AATTCGAT | 0.171
60 | GTACTCAA | 0.0782
61 | ACGTGGGA | -0.127
62 | TGCCGAAA | -0.0682
63 | CCGCTATA | 0.0048
64 | AATAGGAA | 0.206
65 | AATCACCG | 0.11
66 | AATTGGAA | 0.133
67 | CGGTGCGA | -0.0589
68 | ATTGGAGA | 0.125
69 | CGATGCCC | -0.204
70 | ACAACTCA | 0.0676
71 | CCAGACGG | -0.389
72 | CAGTGTGC | -0.109
73 | ATAAGATA | 0.23
74 | AACTCGAT | 0.0914
75 | CTCATTGA | -0.164

Row | Sequence | PBM E-score
76 | AAGACCAC | -0.28
77 | AGGATGGC | -0.125
78 | ACACTCCG | -0.109
79 | CAGAGTGA | -0.0361
80 | CGCTGGCC | -0.331
81 | CCAGAGAG | -0.212
82 | GTAGCCAA | 0.0503
83 | AAACCGTT | 0.0314
84 | GTAGGCGA | -0.0752
85 | AGTATAAG | 0.193
86 | CGACAGTC | -0.259
87 | CGAGAGTA | 0.0233
88 | AGCAGCTG | -0.0113
89 | TAGGTACA | -0.0609
90 | CAACATCA | 0.21
91 | CCTGCGGA | -0.0449
92 | CCACGATC | 0.0612
93 | GTCTTTGA | -0.19
94 | AGCAGACG | -0.0831
95 | ACGTTTAT | 0.204
96 | CGCTGCCA | -0.154
97 | CATGCATC | 0.102
98 | ACCAAAAT | 0.0693
99 | CGATAACG | 0.0879
100 | AGGCCAGC | -0.275

Row | Sequence | PBM E-score
101 | GATAACGC | 0.167
102 | CAGATACA | 0.141
103 | ACCCCCCC | -0.457
104 | ACCCCGGC | -0.283
105 | CTCAAGTA | -0.0341
106 | AGTTGCGC | -0.0199
107 | ATAGACAA | 0.129
108 | ATGGATAG | 0.0546
109 | GAATACGA | 0.17
110 | TCACATGA | -0.111
111 | GGGGACAA | -0.0721
112 | CACGAGTA | 0.0471
113 | AACTACTG | -0.00432
114 | CCCCTGCC | -0.2
115 | AACAGGGT | -0.11
116 | GGATTGAA | 0.14
117 | ATTCGAGC | -0.0756
118 | GTATGAAA | 0.29
119 | TATAGACA | 0.0844
120 | AGGCGTTC | -0.291
121 | GATGAGGA | -0.00505
122 | AAGTTAGT | 0.164
123 | GGGGGGGA | -0.404
124 | AAGTAACG | 0.0352
125 | ACAGGGTA | 0.0598

Row | Sequence | PBM E-score
126 | GGGGGTAA | -0.193
127 | AGACAAGC | 0.00433
128 | CTTCGGAC | -0.027
129 | TGATACCA | 0.00172
130 | CTGACGTC | 0.0626
131 | ATCGCCCA | -0.134
132 | AAATCGAC | 0.181
133 | GAGAGATC | 0.0432
134 | AATTGGGT | 0.331
135 | TCGATGCA | -0.0467
136 | CGTAGCAC | -0.00594
137 | AAACGCTC | -0.104
138 | CCTCATAA | -0.00385
139 | AGTTGGTG | 0.033
140 | ACATGGCT | -0.0604
141 | ATGGATTA | -0.0177
142 | ATCATTGC | -0.00719
143 | GCGGCGAC | -0.0995
144 | ACAACCAC | 0.0359
145 | CCACCGGA | 0.104
146 | TCTGACCA | -0.0272
147 | CCTCGCAC | -0.133
148 | ACTCTGGG | -0.12
149 | AGCGCTCG | -0.154
150 | ACACGACA | 0.213

Retrieved one by one from above (2):
Row | Sequence | PBM E-score
148 | ACTCTGGG | -0.12
132 | AAATCGAC | 0.181

More results follow.

Row | Sequence | PBM E-score
151 | GTAGAGCA | -0.0569
152 | TCCGTAAA | 0.0294
153 | AGCCGGCG | -0.0864
154 | CTTCTCAC | 0.121
155 | CGACCCAG | -0.23
156 | CCCTCGGA | -0.111
157 | CAGGCCGA | -0.114
158 | ACAACGAT | 0.0459
159 | TGCAGCAA | 0.143
160 | GAAACGCC | -0.0431
161 | AGTTTCGG | 0.0851
162 | ATCGCTGC | 0.017
163 | ATGCAATG | -0.0833
164 | AGACAGGA | 0.0897
165 | CCGGGGGA | -0.287
166 | GAGGCATC | -0.206
167 | CCCTGTGC | -0.204
168 | GATGTTGA | 0.137
169 | CTTCCTTA | 0.0813
170 | CAAGCTGA | 0.109
171 | CTGATCTC | -0.0723
172 | CAAATCTC | 0.0919

4 entries from above in another layout:
CGACCCAG
  PBM E-score = -0.23
CCCTCGGA
  PBM E-score = -0.111
GAGGCATC
  PBM E-score = -0.206
CCCTGTGC
  PBM E-score = -0.204
